Laboratory results from patent publication US20180016620A1 (KITE PHARMA, published 2018).
Results are given in words; binding and its absence hold for the method and conditions named. Some binding calls cover weakened binding; strength is not graded here. No end group written: not given here.

Columns and labels:
[1] = target: T1, 8 mer subsequence GKPGSGEG; assay: epitope mapping ELISA with truncated biotinylated peptides
T1 sequence (peptide): GKPGSGEG

subsequence KPGSG = target: T2, subsequence KPGSG; assay: epitope mapping ELISA, summary table of FIG. 7
T2 sequence (peptide): KPGSG

[2] = target: T1, 8 mer subsequence GKPGSGEG; assay: epitope mapping ELISA, summary table of FIG. 7
[3] = target: T3, 10 mer subsequence …; assay: epitope mapping ELISA with truncated biotinylated peptides
T3 sequence (peptide): GSGKPGSGEG

subsequence SGKPGSGE = target: T4, subsequence SGKPGSGE; assay: epitope mapping ELISA, summary table of FIG. 7
T4 sequence (peptide): SGKPGSGE

[4] = target: T3, 10 mer subsequence …; assay: epitope mapping ELISA, summary table of FIG. 7

Measured: binding

B1: Clone 16 anti-linker antibody (antibody, V domains shown)
VH: QSLEESGGRLVTPGTPLTLTCTVSGSDISSYHMGWVRQAPGKGLEYIGIIVSSGSAYYATWAKGRFTISRTSTTVDLKITSPTTEDSATYFCARNQYSGYGFSFWGPGTLVTVSS
VL: AVVLTQTPSPVSTAVGGTVTINCQSSHSVYYGDWLAWYQQKPGQPPKLLIYRASNLASGVPSRFKGSGSGTQFTLTISGVQCDDAATYYCLGGYDDDGETAFGGGTEVVVKD
notes: Rabbit monoclonal from a hybridoma; also called Clone 16-6; 16-6
binds: [1] | subsequence KPGSG | [2]

B2: Clone 8 anti-linker antibody (antibody, V domains shown)
VH: QSVEESGGRLVTPGTPLTLTCTASGFTISNLAIIWVRQAPGKGLEYIGDIDGRGDIYCATWAKGRFTISKTSTTLDLRFTSPTTEDTATYFCAVDGDGSGWGDFNFWGPGTLVTVSS
VL: AYDMTQTPASVEVAVGGTVSIKCQASQSISTALAWYQQKPGQPPKLLIYRASTLASGVSSRFKGSGSGTQFTLTISGVECDDAATYYCQQGWSTVNVDNVFGGGTEVVVRD
notes: Rabbit monoclonal from a hybridoma; also called Clone 8-4; 8-4
binds: [3] | subsequence SGKPGSGE | [4]
